The source of these data is publication PMC6891598 (Molecules, 2019).

Some peptides are written in HELM: one residue between dots, names in brackets for other building blocks, links after the first $.

A short description of this data set: general procedure: Fmoc solid-phase peptide synthesis; 2-Chlorotrityl chloride resin (GLS Biochem); HBTU/DIEA. The note with it: whole synthesis; for final HPLC purity: analytical RP-HPLC in MeCN and MeOH gradients (0.1% FA); for isolated yield: total yield.

For “N-Undecanyl-Ile-Leu-Gly-His-Cit-Asp-Tyr-Lys-OH”, the “final HPLC purity” value is more than 89% and the isolated yield came to 1.4%.
Regarding “PEPTIDE1{[N-Farnesyl-Ile].L.G.H.[Cit].D.Y.K}$$$$V2.0”, the “final HPLC purity” value is listed as more than 89% and the isolated yield was found to be 2.5%. This substance also displayed an isolated mass (scale 0.3 mmol) of 9 mg.
In the case of “PEPTIDE1{[N-Tridecyl-Ile].L.G.H.[Cit].D.Y.K}$$$$V2.0”, the “final HPLC purity” value is more than 99% and the isolated yield is recorded as 0.4%.
As for “PEPTIDE1{[N-Dodecyl-Ile].L.G.H.[Cit].D.Y.K}$$$$V2.0”, the “final HPLC purity” value is reported as more than 95% and the isolated yield is 0.7%.
For the substance “N-Octadecanyl-Ile-Leu-Gly-His-Cit-Asp-Tyr-Lys-OH”, the “final HPLC purity” value is listed as more than 94% and the isolated yield was 0.3%.
“PEPTIDE1{[N-Dodecyl-D-Ile].[dL].G.[dH].[D-Cit].[dD].[dY].[dK]}$$$$V2.0”: the “final HPLC purity” value is on record as more than 94% and the isolated yield came out at 1.2%.
In the case of “HELM PEPTIDE1{I.L.G.H.[Cit].D.Y.K}$$$$V2.0 (SMILES CC[C@H](C)[C@H](N)C(=O)N[C@@H](CC(C)C)C(=O)NCC(=O)N[C@@H](Cc1c[nH]cn1)C(=O)N[C@@H](CCCNC(N)=O)C(=O)N[C@@H](CC(=O)O)C(=O)N[C@@H](Cc1ccc(O)cc1)C(=O)N[C@@H](CCCCN)C(=O)O)”, the “final HPLC purity” value is recorded as more than 97% and the isolated yield turned out to be 7.7%. In addition, the isolated mass (scale 0.07 mmol) was 5 mg.
Take “PEPTIDE1{[N-mPEG4-Ile].L.G.H.[Cit].D.Y.K}$$$$V2.0”: the “final HPLC purity” value was more than 86% and the isolated yield turned out to be 2.9%.
“PEPTIDE1{[N-Hexyl-Ile].L.G.H.[Cit].D.Y.K}$$$$V2.0”: the “final HPLC purity” value is on record as more than 92% and the isolated yield was 0.3%. This substance also showed an isolated mass (scale 0.3 mmol) of 1 mg.
Take “PEPTIDE1{[Dodecanoyl].I.L.G.H.[Cit].D.Y.K}$$$$V2.0”: the “final HPLC purity” value was more than 99% and the isolated yield is 15.0%. Where the note is “scale 1 mmol”, this substance registered an isolated mass of 159 mg.
